The other results are listed elsewhere or left out.
What was measured:
Experiment in all cases: log2 fold change, soluble protein after heating vs DMSO (PISA); higher = thermal stabilisation; K562 lysate, 10 uM; active = over 0.2 and 3.5 SD of the protein, either way, in both replicates (recomputed)
[1] = compound: NCC(=O)Nc1ccc(-n2nc(C(F)(F)F)cc2-c2ccc3c(ccc4ccccc43)c2)cc1
In short: (§1)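 Soluble protein was defined as the supernatant remaining after 21,000xg for 90 min, following pooling of heated aliquots and adjustment to 0.5% NP-40 at 4°C. Before that, crude K562 extract at 1 mg/mL protein in PBS pH 7.4 with 1 mM MgCl2 was treated with 10 μM compound for 30 min and heated for 3 min across 48°C-58°C. Quantification used TMTpro 16plex LC-MS/MS with channel sums equalised, and values are log-two fold changes in thermal stability relative to solvent controls from duplicates.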

The chains behind the UniProt entries cited, without tags or fusion partners. Where a name states a change or a piece, a line headed by the entry shows the natural chain unless it says otherwise.
UniProt P37268: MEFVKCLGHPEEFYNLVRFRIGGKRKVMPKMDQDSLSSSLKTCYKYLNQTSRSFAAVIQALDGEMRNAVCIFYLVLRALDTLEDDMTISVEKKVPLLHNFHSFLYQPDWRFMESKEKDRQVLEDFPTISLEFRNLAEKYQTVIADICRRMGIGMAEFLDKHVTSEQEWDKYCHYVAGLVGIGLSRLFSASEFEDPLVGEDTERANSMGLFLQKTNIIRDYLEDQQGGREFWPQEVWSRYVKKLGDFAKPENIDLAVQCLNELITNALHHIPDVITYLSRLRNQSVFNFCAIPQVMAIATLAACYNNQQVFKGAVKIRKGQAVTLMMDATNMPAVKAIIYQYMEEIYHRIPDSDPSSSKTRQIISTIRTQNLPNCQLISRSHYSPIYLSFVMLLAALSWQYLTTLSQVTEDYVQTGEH
UniProt Q96C11: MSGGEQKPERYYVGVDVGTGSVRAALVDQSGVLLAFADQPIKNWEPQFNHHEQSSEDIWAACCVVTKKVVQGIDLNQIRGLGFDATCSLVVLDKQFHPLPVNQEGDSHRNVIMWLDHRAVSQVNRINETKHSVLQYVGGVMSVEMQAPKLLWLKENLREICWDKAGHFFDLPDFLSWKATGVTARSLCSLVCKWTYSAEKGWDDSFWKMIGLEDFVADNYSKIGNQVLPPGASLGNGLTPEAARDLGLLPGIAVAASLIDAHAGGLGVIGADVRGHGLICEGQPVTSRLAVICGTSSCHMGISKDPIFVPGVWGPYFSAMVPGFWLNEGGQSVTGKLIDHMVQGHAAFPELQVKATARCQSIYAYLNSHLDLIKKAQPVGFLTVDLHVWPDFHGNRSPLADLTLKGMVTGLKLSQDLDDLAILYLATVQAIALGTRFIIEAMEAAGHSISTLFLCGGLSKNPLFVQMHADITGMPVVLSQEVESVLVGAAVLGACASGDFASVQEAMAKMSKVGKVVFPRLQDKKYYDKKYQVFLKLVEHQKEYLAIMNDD
UniProt Q8NFF5: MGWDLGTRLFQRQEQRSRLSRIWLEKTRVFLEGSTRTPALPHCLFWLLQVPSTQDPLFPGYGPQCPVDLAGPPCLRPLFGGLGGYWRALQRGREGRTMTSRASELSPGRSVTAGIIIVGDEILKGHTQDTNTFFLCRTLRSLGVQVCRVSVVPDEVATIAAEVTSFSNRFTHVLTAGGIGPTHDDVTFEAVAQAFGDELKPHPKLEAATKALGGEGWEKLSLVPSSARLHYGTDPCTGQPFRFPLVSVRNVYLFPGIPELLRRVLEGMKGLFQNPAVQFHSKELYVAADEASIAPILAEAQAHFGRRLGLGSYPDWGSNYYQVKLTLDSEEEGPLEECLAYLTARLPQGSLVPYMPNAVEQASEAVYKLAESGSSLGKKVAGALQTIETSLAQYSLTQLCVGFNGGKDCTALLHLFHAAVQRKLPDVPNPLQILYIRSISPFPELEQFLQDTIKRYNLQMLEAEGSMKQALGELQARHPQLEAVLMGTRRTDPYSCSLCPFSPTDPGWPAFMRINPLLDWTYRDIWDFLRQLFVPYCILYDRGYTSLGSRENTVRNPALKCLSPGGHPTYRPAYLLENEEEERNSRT
UniProt Q5XUX1: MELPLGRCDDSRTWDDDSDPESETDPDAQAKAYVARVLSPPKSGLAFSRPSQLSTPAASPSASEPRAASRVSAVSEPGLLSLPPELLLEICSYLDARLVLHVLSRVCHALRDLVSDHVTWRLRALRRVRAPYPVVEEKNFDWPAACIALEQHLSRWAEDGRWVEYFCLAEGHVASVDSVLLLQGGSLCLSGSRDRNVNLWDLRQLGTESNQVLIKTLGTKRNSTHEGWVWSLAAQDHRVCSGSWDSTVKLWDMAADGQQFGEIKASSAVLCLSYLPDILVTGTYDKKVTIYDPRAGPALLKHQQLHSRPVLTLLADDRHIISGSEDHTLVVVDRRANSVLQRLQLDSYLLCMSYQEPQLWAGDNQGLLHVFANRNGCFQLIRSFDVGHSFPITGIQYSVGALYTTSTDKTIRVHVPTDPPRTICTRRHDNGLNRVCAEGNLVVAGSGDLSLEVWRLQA
UniProt Q96CD0: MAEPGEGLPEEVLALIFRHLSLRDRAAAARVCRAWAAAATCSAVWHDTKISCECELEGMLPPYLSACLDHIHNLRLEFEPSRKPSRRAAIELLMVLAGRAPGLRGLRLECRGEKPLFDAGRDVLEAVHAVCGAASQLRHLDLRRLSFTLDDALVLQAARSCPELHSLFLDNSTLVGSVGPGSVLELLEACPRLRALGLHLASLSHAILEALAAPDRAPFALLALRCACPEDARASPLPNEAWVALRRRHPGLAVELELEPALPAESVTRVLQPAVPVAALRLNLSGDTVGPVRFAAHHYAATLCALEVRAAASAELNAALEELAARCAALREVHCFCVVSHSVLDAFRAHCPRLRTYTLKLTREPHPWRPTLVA
UniProt Q9UKT4: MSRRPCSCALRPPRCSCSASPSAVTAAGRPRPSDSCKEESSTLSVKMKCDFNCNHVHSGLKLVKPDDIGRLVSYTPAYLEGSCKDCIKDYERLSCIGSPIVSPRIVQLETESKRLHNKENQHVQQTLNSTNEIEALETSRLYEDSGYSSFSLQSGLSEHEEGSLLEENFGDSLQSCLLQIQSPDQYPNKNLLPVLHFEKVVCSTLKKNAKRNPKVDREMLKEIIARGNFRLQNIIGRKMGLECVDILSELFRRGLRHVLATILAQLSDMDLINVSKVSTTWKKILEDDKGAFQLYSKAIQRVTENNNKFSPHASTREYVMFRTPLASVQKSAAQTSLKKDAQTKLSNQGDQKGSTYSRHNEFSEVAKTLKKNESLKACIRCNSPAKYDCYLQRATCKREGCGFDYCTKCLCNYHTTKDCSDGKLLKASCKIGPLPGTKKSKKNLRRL
UniProt O95684: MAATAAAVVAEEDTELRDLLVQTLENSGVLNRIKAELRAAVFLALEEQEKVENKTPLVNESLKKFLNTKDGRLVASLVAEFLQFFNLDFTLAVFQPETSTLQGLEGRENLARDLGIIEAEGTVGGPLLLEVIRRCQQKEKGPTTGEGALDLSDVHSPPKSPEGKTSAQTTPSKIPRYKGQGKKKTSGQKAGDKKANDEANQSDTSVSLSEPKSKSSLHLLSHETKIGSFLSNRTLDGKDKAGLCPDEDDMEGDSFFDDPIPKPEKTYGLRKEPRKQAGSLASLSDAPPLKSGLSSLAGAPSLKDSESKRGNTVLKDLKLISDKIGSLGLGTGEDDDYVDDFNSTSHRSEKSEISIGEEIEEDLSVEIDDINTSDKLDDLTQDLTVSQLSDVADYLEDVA
UniProt P62942, whole entry, looked up: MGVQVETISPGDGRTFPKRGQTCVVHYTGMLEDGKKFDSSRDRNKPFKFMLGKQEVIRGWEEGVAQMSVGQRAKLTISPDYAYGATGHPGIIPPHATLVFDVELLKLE
UniProt Q9NXK8: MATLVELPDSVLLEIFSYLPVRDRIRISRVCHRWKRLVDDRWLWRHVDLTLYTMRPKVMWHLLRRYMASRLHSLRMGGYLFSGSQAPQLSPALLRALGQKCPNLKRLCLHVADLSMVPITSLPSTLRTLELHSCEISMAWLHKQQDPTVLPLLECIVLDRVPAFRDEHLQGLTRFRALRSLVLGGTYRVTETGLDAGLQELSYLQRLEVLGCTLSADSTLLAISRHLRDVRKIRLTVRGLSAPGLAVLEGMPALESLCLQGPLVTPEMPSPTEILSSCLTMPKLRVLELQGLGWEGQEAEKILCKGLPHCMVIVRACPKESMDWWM
UniProt Q0JRZ9: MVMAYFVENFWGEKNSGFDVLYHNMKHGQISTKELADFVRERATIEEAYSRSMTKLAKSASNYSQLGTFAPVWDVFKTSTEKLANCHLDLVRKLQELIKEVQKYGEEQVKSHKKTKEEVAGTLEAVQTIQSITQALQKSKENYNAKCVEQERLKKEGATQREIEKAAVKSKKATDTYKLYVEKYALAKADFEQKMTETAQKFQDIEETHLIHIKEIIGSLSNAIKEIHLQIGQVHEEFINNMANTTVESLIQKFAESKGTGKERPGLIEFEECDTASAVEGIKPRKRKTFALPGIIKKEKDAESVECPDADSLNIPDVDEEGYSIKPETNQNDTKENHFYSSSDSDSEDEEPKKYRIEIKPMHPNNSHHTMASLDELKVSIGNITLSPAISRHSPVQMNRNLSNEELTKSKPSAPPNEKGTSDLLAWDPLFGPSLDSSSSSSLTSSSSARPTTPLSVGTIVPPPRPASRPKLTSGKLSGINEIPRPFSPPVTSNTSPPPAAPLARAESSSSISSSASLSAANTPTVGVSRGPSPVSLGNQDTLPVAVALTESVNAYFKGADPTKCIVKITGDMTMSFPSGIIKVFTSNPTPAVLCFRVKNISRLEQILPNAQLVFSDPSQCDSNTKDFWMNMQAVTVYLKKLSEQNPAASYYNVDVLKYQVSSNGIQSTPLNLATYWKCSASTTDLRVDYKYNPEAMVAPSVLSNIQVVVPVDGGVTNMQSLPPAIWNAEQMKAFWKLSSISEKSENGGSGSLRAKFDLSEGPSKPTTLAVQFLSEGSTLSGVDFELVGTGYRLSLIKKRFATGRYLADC
UniProt Q9HA64: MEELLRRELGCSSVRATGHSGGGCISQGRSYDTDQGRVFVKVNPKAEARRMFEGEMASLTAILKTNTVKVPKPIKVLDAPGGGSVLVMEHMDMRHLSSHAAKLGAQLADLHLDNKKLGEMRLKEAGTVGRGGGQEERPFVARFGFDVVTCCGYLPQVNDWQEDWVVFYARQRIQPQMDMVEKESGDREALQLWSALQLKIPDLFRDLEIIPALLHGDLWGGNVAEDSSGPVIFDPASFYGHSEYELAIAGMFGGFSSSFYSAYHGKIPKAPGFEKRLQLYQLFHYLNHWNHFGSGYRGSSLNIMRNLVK
UniProt P0C5J1: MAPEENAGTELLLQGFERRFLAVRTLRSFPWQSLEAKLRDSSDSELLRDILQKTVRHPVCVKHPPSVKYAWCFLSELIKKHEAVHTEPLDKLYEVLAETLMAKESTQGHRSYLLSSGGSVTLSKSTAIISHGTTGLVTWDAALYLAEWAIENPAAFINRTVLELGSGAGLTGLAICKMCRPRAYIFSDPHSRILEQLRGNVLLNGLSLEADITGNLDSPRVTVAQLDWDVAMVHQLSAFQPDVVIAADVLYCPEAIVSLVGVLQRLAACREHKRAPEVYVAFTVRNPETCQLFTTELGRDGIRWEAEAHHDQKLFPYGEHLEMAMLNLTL
UniProt O95302: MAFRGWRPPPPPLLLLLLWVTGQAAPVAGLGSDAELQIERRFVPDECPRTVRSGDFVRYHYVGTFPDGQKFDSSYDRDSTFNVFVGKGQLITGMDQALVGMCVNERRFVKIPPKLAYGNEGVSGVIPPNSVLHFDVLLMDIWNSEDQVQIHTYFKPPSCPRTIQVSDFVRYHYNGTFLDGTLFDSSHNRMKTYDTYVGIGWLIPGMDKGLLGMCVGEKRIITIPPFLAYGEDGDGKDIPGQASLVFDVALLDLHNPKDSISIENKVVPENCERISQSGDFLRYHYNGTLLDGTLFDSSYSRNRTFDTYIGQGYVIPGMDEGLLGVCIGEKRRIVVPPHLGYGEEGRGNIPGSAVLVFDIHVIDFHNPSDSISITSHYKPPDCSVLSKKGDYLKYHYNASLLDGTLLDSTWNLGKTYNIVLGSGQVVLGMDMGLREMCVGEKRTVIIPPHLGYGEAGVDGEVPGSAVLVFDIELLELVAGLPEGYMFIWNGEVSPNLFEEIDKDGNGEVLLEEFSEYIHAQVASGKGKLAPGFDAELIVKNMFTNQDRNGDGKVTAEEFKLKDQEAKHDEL
UniProt Q92562: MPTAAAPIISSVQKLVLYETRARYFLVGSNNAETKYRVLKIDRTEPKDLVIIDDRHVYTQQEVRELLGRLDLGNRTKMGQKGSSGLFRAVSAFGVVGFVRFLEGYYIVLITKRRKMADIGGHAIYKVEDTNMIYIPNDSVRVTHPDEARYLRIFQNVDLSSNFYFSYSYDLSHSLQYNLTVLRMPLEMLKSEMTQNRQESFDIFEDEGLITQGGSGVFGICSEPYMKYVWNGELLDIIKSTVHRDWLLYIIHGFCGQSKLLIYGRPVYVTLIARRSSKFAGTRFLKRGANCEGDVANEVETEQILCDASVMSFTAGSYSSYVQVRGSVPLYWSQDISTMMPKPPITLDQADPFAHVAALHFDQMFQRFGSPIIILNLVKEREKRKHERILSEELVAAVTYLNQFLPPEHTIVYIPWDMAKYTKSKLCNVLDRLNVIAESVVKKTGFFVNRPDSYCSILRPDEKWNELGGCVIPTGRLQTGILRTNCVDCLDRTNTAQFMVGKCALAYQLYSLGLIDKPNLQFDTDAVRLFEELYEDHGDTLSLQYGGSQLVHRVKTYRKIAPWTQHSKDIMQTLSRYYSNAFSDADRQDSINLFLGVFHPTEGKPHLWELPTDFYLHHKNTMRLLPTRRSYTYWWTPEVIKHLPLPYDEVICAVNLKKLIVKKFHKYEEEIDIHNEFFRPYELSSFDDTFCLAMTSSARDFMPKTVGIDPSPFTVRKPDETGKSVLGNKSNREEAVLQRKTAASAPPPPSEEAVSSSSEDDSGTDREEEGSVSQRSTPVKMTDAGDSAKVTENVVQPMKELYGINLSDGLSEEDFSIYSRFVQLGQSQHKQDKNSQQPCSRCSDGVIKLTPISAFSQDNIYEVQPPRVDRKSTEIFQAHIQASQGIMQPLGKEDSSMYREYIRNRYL

vorinostat = compound: O=C(CCCCCCC(=O)Nc1ccccc1)NO [vorinostat]
In short: as §1

silmitasertib = compound: O=C(O)c1ccc2c(c1)nc(Nc1cccc(Cl)c1)c1ccncc12 [silmitasertib]
In short: as §1

[2] = compound: O=C1NC(=O)C(c2cnc3ccccn23)=C1c1cn2c3c(cc(F)cc13)CN(C(=O)N1CCCCC1)CC2
In short: as §1

entospletinib = compound: c1cn2cc(-c3ccc4cn[nH]c4c3)nc(Nc3ccc(N4CCOCC4)cc3)c2n1 [entospletinib]
In short: as §1

Measured: log2 fold change

FDFT1 (UniProt P37268)
inactive: [1] -0.004 | vorinostat -0.006 | silmitasertib 0.041 | [2] 0.004 | entospletinib 0.06

FAM98A (UniProt Q8NCA5)
inactive: [1] 0.027 | silmitasertib 0.005 | [2] 0.01 | entospletinib 0.006
active: vorinostat -0.558

FGGY isoform 3 (UniProt Q96C11)
inactive: [1] -0.076 | vorinostat 0.101 | silmitasertib -0.032 | [2] -0.134 | entospletinib -0.009

FLAD1 (UniProt Q8NFF5)
inactive: [1] -0.012 | silmitasertib 0.102 | [2] -0.005 | entospletinib 0.037
active: vorinostat -0.397

FN3K (UniProt Q9H479)
inactive: [1] -0.001 | vorinostat 0.126 | silmitasertib -0.033 | [2] 0.011 | entospletinib 0.011

FBXW9 (UniProt Q5XUX1)
inactive: [1] -0.031 | vorinostat -0.049 | silmitasertib 0.047 | [2] -0.024 | entospletinib -0.021

FBXL8 (UniProt Q96CD0)
inactive: [1] 0.001 | vorinostat -0.078 | silmitasertib 0.037 | [2] 0.045 | entospletinib 0.068

FMC1 (UniProt Q96HJ9)
inactive: [1] 0.006 | vorinostat 0.081 | silmitasertib 0.081 | [2] 0.023 | entospletinib -0.01

FDX1 (UniProt P10109)
inactive: [1] -0.02 | vorinostat 0.166 | silmitasertib -0.066 | [2] 0.043 | entospletinib -0.066

FBXO5 (UniProt Q9UKT4)
inactive: [1] 0.001 | vorinostat -0.255 | silmitasertib -0.03 | [2] -0.032 | entospletinib 0.024

FLNA (UniProt P21333)
inactive: [1] 0.022 | vorinostat -0.07 | silmitasertib -0.005 | [2] 0.02 | entospletinib 0.017

FGFR1OP isoform 3 (UniProt O95684)
inactive: [1] -0.189

FKBP3 (UniProt Q00688)
inactive: [1] 0.018 | vorinostat 0.158 | silmitasertib -0.031 | [2] 0.009 | entospletinib -0.005

FKBP1A (UniProt P62942)
inactive: [1] -0.154 | vorinostat 0.036 | silmitasertib -0.006 | [2] 0.068 | entospletinib 0.049

FERMT2 isoform 3 (UniProt Q96AC1)
inactive: [1] -0.047 | vorinostat 0.047 | silmitasertib -0.091 | [2] -0.002 | entospletinib -0.009

FKBP15 (UniProt Q5T1M5)
inactive: [1] -0.001 | vorinostat 0.064 | silmitasertib -0.016 | [2] 0.024 | entospletinib -0.024

FBXL12 (UniProt Q9NXK8)
inactive: [1] -0.032 | vorinostat -0.145 | silmitasertib 0.005 | [2] 0.022 | entospletinib -0.02

FDX2 (UniProt Q6P4F2)
inactive: [1] -0.03 | vorinostat 0.195 | silmitasertib -0.069 | [2] -0.066 | entospletinib 0.042

FLOT2 (UniProt Q14254)
inactive: [1] 0.017 | vorinostat 0.135 | silmitasertib 0.028 | [2] -0.003 | entospletinib 0.026

FCHO2 (UniProt Q0JRZ9)
inactive: [1] -0.037 | vorinostat -0.028 | silmitasertib -0.011 | [2] 0.018 | entospletinib -0.027

FN3KRP (UniProt Q9HA64)
inactive: [1] 0.005 | vorinostat 0.153 | silmitasertib -0.045 | [2] -0.006 | entospletinib 0.011

FAM86B2 (UniProt P0C5J1)
inactive: [1] -0.248

FKBP9 (UniProt O95302)
inactive: [1] -0.016 | vorinostat 0.104 | silmitasertib -0.04 | [2] 0.002 | entospletinib 0.011

FN1 (UniProt P02751)
inactive: [1] -0.021 | vorinostat 0.096 | silmitasertib -0.045 | [2] -0.02 | entospletinib 0.017

FIG4 (UniProt Q92562)
inactive: [1] -0.037 | silmitasertib 0.017 | [2] 0.056 | entospletinib 0.052
active: vorinostat -0.517

FBLL1 (UniProt A6NHQ2)
inactive: [1] 0.006 | vorinostat 0.094 | silmitasertib 0.034 | [2] -0.017 | entospletinib -0.014

Reprinted at random: 2 records from the list, in no set order.
FKBP3 (UniProt Q00688)
inactive: [1] 0.018 | vorinostat 0.158 | silmitasertib -0.031 | [2] 0.009 | entospletinib -0.005

FDX2 (UniProt Q6P4F2)
inactive: [1] -0.03 | vorinostat 0.195 | silmitasertib -0.069 | [2] -0.066 | entospletinib 0.042

Going on with the list.

FIGNL1 (UniProt Q6PIW4)
inactive: [1] -0.016 | silmitasertib 0.045 | [2] 0 | entospletinib 0.05
active: vorinostat -0.484

FKBP5 (UniProt Q13451)
inactive: [1] -0.008 | vorinostat -0.145 | silmitasertib 0.017 | [2] -0.021 | entospletinib 0.006
